Laboratory results published in PMC10803754.
Results are given in words; binding and its absence hold for the method and conditions named. Binding seen in cells or lysates may run through a third protein. Some entries that bind do so weakly or less than the wild type. Sequences can lack the tags named with a protein.

Experiments:
[1] = biological target: T1, Multicilin tagged at the N-terminus with 3xFLAG (mouse) (mouse) (UniProt Q3UZ45); test: co-IP; FLAG M2 agarose precipitation from lysates of MEFs infected with Ad5 FLAG-MCI+E2f4 (wildtype E2f4 co-expressed); eluted with FLAG peptide; immunoblot for Rbl1, Rbl2 and FLAG
T1 sequence: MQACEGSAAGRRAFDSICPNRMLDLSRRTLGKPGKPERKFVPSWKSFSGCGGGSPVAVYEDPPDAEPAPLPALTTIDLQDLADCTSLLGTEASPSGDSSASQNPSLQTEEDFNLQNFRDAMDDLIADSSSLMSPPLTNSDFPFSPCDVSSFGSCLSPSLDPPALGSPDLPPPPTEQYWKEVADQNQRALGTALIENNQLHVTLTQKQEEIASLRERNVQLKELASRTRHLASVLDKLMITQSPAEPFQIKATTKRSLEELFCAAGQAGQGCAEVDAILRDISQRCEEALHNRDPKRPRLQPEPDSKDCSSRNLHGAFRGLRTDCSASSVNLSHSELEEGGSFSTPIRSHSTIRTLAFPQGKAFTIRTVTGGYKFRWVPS

[2] = biological target: T1, Multicilin tagged at the N-terminus with 3xFLAG (mouse) (mouse); test: co-IP; FLAG M2 agarose precipitation from lysates of MEFs infected with Ad5 FLAG-MCI alone; eluted with FLAG peptide; immunoblot for Rbl1, Rbl2 and FLAG

B1: Retinoblastoma-like protein 2 (RBL2), mouse (protein, UniProt Q64700 1-1135)
chain: MASGGNQSPPPPPAAAASSEEEEEDGDAADRAQPAGSPSHQIQQRFEELCSRLNMDEAARAEAWSSYRSMSESYTLEGNDLHWLACALYVACRKSVPTVSKGTAEGNYVSLTRILRCSEQSLIEFFNKMKKWEDMANLPPHFRERTERLERNFTVSAVIFKKYEPIFQDIFKYPQEEQPRQQRGRKQRRQPCTTSEIFHFCWVLFIYAKGNFPMISDDLVNSYHLLLCALDLVYGNALQCSNRKELVNPNFKGLSEDCHPKDSKASSDPPCVIEKLCSLHDGLVLEAKGIKEHFWKPYIRKLFEKKLLKGKEENLTGFLEPGNFGESFKAVNKAYEEYVLAAGNLDERVFLGEDAEEEVGTLSRCLSAASGTESAERTQMRDILQQHLDKSKALRVCTPLTGVRYVQENSPCVTPVSTAAHSLSRLHTMLSGLRNAPSEKLERILRSCSRDPTQAIADRLKEMYEIYSQHFQPDENFSNCAKEIANKHFRFAEMLYYKVLESVIEQEQKRLGDMDLSGVLEHDAFHRSLLACCLEVVAFSHKPPGNFPFIAEIFDVPHYHFYKVIEVFIRAEDGLCREVVKHLNQIEEQILDHLAWKTKSPLWDRIRDNENRVPTCEEVMPPQNLERTDEIYIAGSPLTPRRVGEVRADAGGLGRSITSPTTLYDRYSSPTVSTTRRRLFENDSPSEGSTSGRIPPQPLVNAVPVQNVPGETVSVTPVPGQTLVTMATATVTANNGQTVTIPVQGIANENGGITFFPVQVNVGGQAQAVAGSIQPLSAQALAGSLSSQQVTGTTLQVPGPVAIQQISPGGQQQNPGQPLTSSSIRPRKTSSLALFFRKVYYLAGVRLRDLCIKLDISDELRKKIWTCFEFSIIQCTELMMDRHLDQLLMCAIYVMAKVTKEDRSFQNIMRCYRTQPQARSQVYRSVLIKGKRRNSGSSESRSHQNSPTELNTDRASRDSSPVMRSNSTLPVPQPSSAPPTPTRLTGASSDVEEEERGDLIQFYNNIYRKQIQAFAMKYSQANAQTDTPPLSPYPFVRTGSPRRVQLSQSHPIYISPHNNEAMPSPREKIFYYFSNSPSKRLREINSMIRTGETPTKKRGILLDDGSESPAKRICPENHSALLRRLQDVANDRGSQ
binding [1]: binds
binding [2]: binds
